# From the supplement of paper PMC7824004
# The other results are listed elsewhere or left out. The data scatter; read single values as rough.
# Tested on: Candida albicans SN425
# Experiment: biofilm OD600 B-score; higher = more biofilm (less inhibition)
# Conditions: 10 µM; assay detail: High-throughput adherence inhibition optical density biofilm assay with C. albicans SN425 in RPMI-1640/MOPS pH 7.0, 384-well plates. …
# Experimental: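 High-throughput adherence inhibition optical density biofilm assay with C. albicans SN425 in RPMI-1640/MOPS pH 7.0, 384-well plates. Compound (10 µM) was present only during the 90 min adherence step, then washed out, and the biofilm grew 24 h without compound. Biofilm was read as OD600 after removing the media. Scores are the difference from the mean in standard deviations and the plate B-score.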
row,SMILES,biofilm OD600 B-score
1,NC(CC(=O)O)c1ccc(Cl)cc1 (stereo not given),2.84
2,COCC(C)NS(=O)(=O)c1ccc(OC)cc1 (stereo not given),-2.37
3,CC(C)NC1CS(=O)(=O)CC1O (stereo not given),-0.583
4,CCOc1ccccc1C(=O)Nc1nnc(COC)s1,0.488
5,CS(=O)(=O)NCCSc1ccccc1,-0.58
6,C=CCOc1ccccc1CN1CCCN(C)CC1,1.4
7,CC(C(N)=O)N(c1ccc(Oc2ccccc2)cc1)S(C)(=O)=O (stereo not given),1.63
8,O=C(NCc1ccco1)Nc1ccc2snnc2c1,-0.303
9,CCCN(CCO)Cc1ccc(F)c(F)c1,-0.72
10,CN(C)CCN(C)Cc1ccc(F)cc1,-0.472
11,O=C(O)CNC(=O)NC12CC3CC(CC(C3)C1)C2,-3.55
12,CCc1cc2c(=O)n(N)c(CCC(=O)O)nc2s1,-0.0737
13,O=C(O)C1C2CCC(C2)C1C(=O)NCC1CCCO1 (stereo not given),1.13
14,CC1CCC(N2CCN(c3ncccn3)CC2)C1 (stereo not given),1.1
15,O=C(CSc1nc(O)cc(=O)[nH]1)N1CCOCC1,-1.32
16,COCc1cc(=O)n2[nH]c(-c3cccc(Br)c3)cc2n1,-1.86
17,COc1ccc(C(N)=O)cc1S(=O)(=O)N1CCOCC1,0.3
18,CCc1c(C)nc2cc(-c3ccc(Cl)cc3)[nH]n2c1=O,1.49
19,O=C(NCCC1=CCCCC1)c1ccncc1,-0.267
20,C1CCCC(NCCCN2CCOCC2)CC1,-0.84

# Part of the list above, bar-delimited.
row | SMILES | biofilm OD600 B-score
1 | NC(CC(=O)O)c1ccc(Cl)cc1 (stereo not given) | 2.84
14 | CC1CCC(N2CCN(c3ncccn3)CC2)C1 (stereo not given) | 1.1

# Additional records follow:

row,SMILES,biofilm OD600 B-score
1,O=C(O)C1CCCCC1C(=O)NCc1ccc(Cl)cc1 (stereo not given),-1.28
2,C=CCSc1nc(O)c(Cc2ccccc2)c(=O)[nH]1,0.729
3,CC(=O)c1ccc(N2CCN(CC3CCCCC3)CC2)cc1,0.817
4,COc1ccc(C(C)NC(=O)C2CC2)cc1OC (stereo not given),-0.492
5,O=S(=O)(Nc1cccc2cccnc12)c1ccccc1,-2.97
6,CCN(CCN(C)C)CC1CC=CCC1 (stereo not given),1.36
7,CCN1CCN(CC2CC3C=CC2C3)CC1 (stereo not given),-1
8,O=C(NCCCO)NC1CCCCC1,0.58
9,COc1cc(OC)c(OC)cc1CN1CCC(O)CC1,-0.0642
10,OCCn1nc(-c2ccccc2)cc1-c1ccccc1,-3
11,Cc1cccc(C)c1OCCCN(C)C,-1.22
12,c1ccc(Nc2nc(-c3ccccn3)cs2)nc1,7.62
13,Cc1nnc(NS(=O)(=O)Cc2ccccc2)s1,1.32
14,COc1ccc(CNC(=O)c2ccc(NC(C)=O)cc2)cc1,0.815
15,Cc1cc(OCC(N)=O)cc(C)c1Br,0.601
16,Clc1ccccc1OCCCCN1CCOCC1,0.0139
17,CC(=O)Nc1ccccc1NC(=O)c1cccc(F)c1,-1.1
18,O=C(CCc1ccccc1)Nc1nn[nH]n1,-1.16
19,Cc1ccc(OCC(O)CN2CCCC2)cc1C (stereo not given),-5.11
20,CCN(CC)c1ccc(CN2CCSCC2)cc1,-0.305
